# Measured values reported in PubChem BioAssay AID1347076 (National Center for Advancing Translational Sciences (NCATS), 2019).
# The campaign covered roughly 400,000 compounds. About 13,000 (3.2%) were called active. Inconclusive means that the source gave no clear call. Such entries were picked first, then a sample of the others. Calls follow the shape of the dose curve; as a rule, active = well fitted cell-killing curve with a large enough effect; inconclusive = small, poorly fitted or top-dose-only effect, or effect the other way; inactive = flat fitted curve, though single readings scatter. Potencies of inconclusive entries are doubtful fits and often do not repeat.
# Experiment: qHTS assay for MDR1-selective chemotherapeutics: Primary screen using the drug-selected MDR subline cells KB-V1; also: nearly all actives have a fitted effect of over 60% in size
# Conditions: KB-V1 MDR cells viability, CellTiter-Glo, 72 h; activity change, negative = cytotoxicity: at 46.1 µM (top of the series)
# Outline: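 Luminescent ATP read-out (CellTiter-Glo, 10 min) measures survival of drug-selected KB-V1 MDR cells after 72 h, 37 degrees C compound exposure. Medium: phenol-red-free DMEM, 10% FBS. Values from fitted concentration-response curves.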
# % is scaled to controls: 0 for no effect and ±100 for the full control effect; potency is read from the fitted curve at half-maximal effect.
SMILES,Potency,"activity change, negative = cytotoxicity"
COc1ccc(/C=C/C(=O)NC(=S)Nc2ccc(S(=O)(=O)Nc3cc(C)on3)cc2)cc1,"inconclusive: 16.4 µM [rising, single point]",
CCN(CC(=O)Nc1c(F)cccc1F)C(=O)CN(C)S(=O)(=O)c1ccc(F)cc1,active: 20.6 µM,
Cc1cccc(CSc2nncc(=O)[nH]2)c1,"inconclusive: 6.51 µM [rising, partial curve]",
O=C1c2ccccc2C(O)(Cc2ccccc2)N1C1CCCCC1 (centres undefined),"inconclusive: 14.6 µM [cytotoxic, partial curve]",
O=C(NC(=S)NCCc1ccccc1)c1ccccc1,"inconclusive: 16.4 µM [cytotoxic, single point]",
O=C(c1ccccc1)c1ccc(OCC(O)CNC2CCCc3ccccc32)cc1 (centres undefined),"inconclusive: 10.3 µM [cytotoxic, partial curve, poor fit]",
COc1ccccc1N1CCN(C(=S)Nc2cccc(C)c2)CC1,"inconclusive: 23.1 µM [cytotoxic, single point]",
COC(=O)c1ccc(CN(c2ccccn2)S(=O)(=O)c2ccccc2)cc1,inactive,
O=C(Cc1ccccn1)c1ccncc1,"inconclusive: 29.1 µM [rising, single point]",
CCCN(CC(=O)Nc1ccccc1C)C(=O)CC(NC(=O)c1ccccc1)c1ccccc1 (centres undefined),"inconclusive: 3.26 µM [cytotoxic, partial curve]",
O=C(CCN1CCN(c2ccccc2F)CC1)Nc1ccc2c(c1)OCO2,"inconclusive: 29.1 µM [cytotoxic, single point]",
CCc1nc2ccc(C(=O)Nc3ccc(Cl)c(Cl)c3)cn2c1N(C)Cc1ccc(OC)cc1,"inconclusive: 29.1 µM [cytotoxic, single point]",
COc1ccc(C(=O)NC23CC4CC(CC(C4)C2)C3)cc1,inactive,
CC(OC(=O)CCOc1ccccc1)C(=O)Nc1ccc(Cl)cn1 (centres undefined),inactive,
CN1CCN(c2cc(=O)n(-c3ccc(Cl)cc3)c(=O)[nH]2)CC1,"inconclusive: 29.1 µM [rising, partial curve, poor fit]",
COc1cccc(N2CCN(C(=O)CNC(=O)c3sc4ccccc4c3Cl)CC2)c1,"inconclusive: 16.4 µM [cytotoxic, partial curve]",
COc1cccc(/C=C/C(=O)c2ccc3c(c2)OCO3)c1OC,active: 23.1 µM,
CCOc1cc(C(=S)N2CCCC2)ccc1OCC(=O)Nc1c(C)cc(C)cc1C,"inconclusive: 2.91 µM [cytotoxic, full curve]",
c1ccc(CCn2nnnc2C(c2cccnc2)N2CCN(c3nc4ccccc4s3)CC2)cc1 (centres undefined),"inconclusive: 20.6 µM [cytotoxic, partial curve, poor fit]",
O=C(Nc1ccc(OC(F)(F)F)cc1)c1cc(-c2ccc(Cl)cc2)on1,inactive,
CCOC(=O)c1c(C)n(-c2ccc(C)cc2)c2ccc(OCC(O)CNCCCO)cc12 (centres undefined),"inconclusive: 29.1 µM [cytotoxic, single point]",
CCC(=O)N1CCC1(C)C(=O)Nc1ccc(OC)c(OC)c1 (centres undefined),"inconclusive: 16.4 µM [rising, single point]",
COc1ccc(C2(SCC(N)C(=O)O)c3ccccc3-c3ccccc32)cc1 (centres undefined),inactive,

SMILES,Potency,"activity change, negative = cytotoxicity"
CCC(Oc1ccccc1)C(=O)N(Cc1ccccc1)c1ccccn1 (centres undefined),active: 16.4 µM,
COC(=O)C1=C(CS(=O)(=O)c2ccc(Cl)cc2)NC(=O)NC1c1ccc(O)c(OC)c1 (centres undefined),"inconclusive: 20.6 µM [rising, single point]",
COc1ccc(Oc2nc3c(c(=O)n(C)c(=O)n3C)n2Cc2ccccc2)cc1,"inconclusive: 11.6 µM [cytotoxic, partial curve]",
Cc1ccc(NS(=O)(=O)c2cc(C(=O)NCCSC3CCCCC3)ccc2C)cc1,"inconclusive: 23.1 µM [cytotoxic, single point]",
COC(=O)[C@]12CCCCC=C1N(CCc1ccc(OC)c(OC)c1)C(=O)[C@H](CC(=O)NCC13CC4CC(CC(C4)C1)C3)C2,active: 18.4 µM,
Cc1ccc(NC(=O)Cn2c3ccc(F)cc3c3nc4n(c(=O)c32)CCS4)cc1F,"inconclusive: 13 µM [cytotoxic, partial curve, poor fit]",
COc1ccc(NC(=O)C2CCN(C(=O)Nc3ccccc3)CC2)cc1S(=O)(=O)N(C)C,inactive,
CCC(=O)N1CCc2cc(Br)cc(S(=O)(=O)N3CCCC(C(=O)NCc4ccc(C)cc4)C3)c21 (centres undefined),inactive,
Cc1c(Cl)cccc1NC(=O)CSc1nnc(CCNC(=O)OC(C)(C)C)o1,"inconclusive: 18.4 µM [cytotoxic, single point]",
C=C(C)COc1ccc2c(c1)CCC1C2CCC2(C)C(=O)C(=NO)CC12 (centres undefined),"inconclusive: 23.1 µM [cytotoxic, single point]",
Cc1ccc(-n2c3nc(=O)n(C)c(=O)c-3cc3ccccc32)c(C)c1,inactive,
CC1(C(=O)Nc2ccc3c(c2)OCCO3)CCN1C(=O)c1cccc(F)c1 (centres undefined),inactive,
CN(C)S(=O)(=O)c1cccc(NC(=O)CNc2cccc(S(=O)(=O)N3CCCCC3)c2)c1,inactive,
Cc1ccccc1S(=O)(=O)Cc1ccc(C(=O)N2CCN(c3cccc(C)c3C)CC2)o1,active: 5.8 µM,
COc1ccc(/C=C/c2nc(C#N)c(N3CCCCC3)o2)cc1OC,inactive,
CCCNC(=O)Cn1c(=O)/c(=C/c2ccc(-c3ccc([N+](=O)[O-])cc3)o2)s/c1=C\C(=O)C(C)(C)C,inactive,
COc1ccccc1NS(=O)(=O)c1cc(C(=O)N2CCCCCCC2)ccc1C,"inconclusive: 8.2 µM [cytotoxic, partial curve]",
COc1ccc(S(=O)(=O)c2c(Nc3cccc(Cl)c3)sc(C(=O)c3ccccc3)c2N)cc1,"inconclusive: 13 µM [cytotoxic, partial curve, poor fit]",
CCOC(=O)C1=CN(Cc2ccco2)S(=O)(=O)NC1c1ccc(C(F)(F)F)cc1 (centres undefined),inactive,
Cc1ccc(/C=N/n2c(C)cc(C)c(C#N)c2=O)o1,"inconclusive: 8.2 µM [rising, partial curve]",
CCCCN(Cc1cc2cc(C)ccc2[nH]c1=O)C(=O)c1cccc(Cl)c1,inactive,
Cc1ccc(C)c(S(=O)(=O)NCC(=O)Nc2sc3c(c2C(N)=O)CCC(C)C3)c1 (centres undefined),"inconclusive: 14.6 µM [cytotoxic, single point]",
C=CCN(Cc1cccs1)C(=O)COc1ccc2c(c1)OCO2,"inconclusive: 16.4 µM [cytotoxic, single point]",

SMILES,Potency,"activity change, negative = cytotoxicity"
CCOC(=O)CNNC(=O)Nc1ccc(Cl)c(Cl)c1,"inconclusive: 29.1 µM [rising, single point]",
O=C(NCc1cccc(C(F)(F)F)c1)c1cccc(S(=O)(=O)NCc2ccccc2)c1,active: 18.4 µM,
CCOc1ccc(N(Cc2cc3cc(C)ccc3[nH]c2=O)C(=O)COC)cc1,"inconclusive: 29.1 µM [cytotoxic, single point]",
Cc1ccc(C)c(N2CCN(C(=S)Nc3ccc4nc(N5CCN(C)CC5)cc(C)c4c3)CC2)c1,inactive,
CCOC(=O)c1cccc(S(=O)(=O)N(CCO)Cc2cc3cc(OC)ccc3[nH]c2=O)c1,"inconclusive: 32.6 µM [cytotoxic, single point]",
Nc1nc(SCC(=O)Nc2ccccc2Sc2ccccc2)n[nH]1,active: 14.6 µM,
Cc1ccc(CNC(=O)CC[C@H]2O[C@@H](n3cc(C)c(=O)[nH]c3=O)C[C@@H]2O)o1,inactive,
O=c1c2ccccc2nc(SCc2cn3ccsc3n2)n1-c1ccccc1F,"inconclusive: 14.6 µM [cytotoxic, single point]",
COc1cccc(NC(=O)Cn2c(=O)oc3cc(S(=O)(=O)N4CCCCC4)ccc32)c1,inactive,
CC(C)Cn1nc(C(=O)Nc2cccc(S(=O)(=O)N3CCCC3)c2)c2ccccc2c1=O,active: 4.61 µM,
CCCN(Cc1cc2ccccc2[nH]c1=O)C(=O)c1cccc([N+](=O)[O-])c1,"inconclusive: 11.6 µM [cytotoxic, partial curve, poor fit]",
CCc1ccc(NC(=O)COC(=O)CCc2nc3cc(S(=O)(=O)N(CC)CC)ccc3n2C)cc1,"inconclusive: 16.4 µM [cytotoxic, partial curve, poor fit]",
COc1ccc(C(=O)C2CCCN(Cc3c(F)ccc(F)c3F)C2)c(OC)c1 (centres undefined),,inconclusive: -33.8% [cytotoxic]
COc1ccc(OC)c(CCNC(=O)c2nc(-c3ccc(Cl)cc3)n3c2CCCCC3)c1,inactive,
Cc1cc(C(=O)CSc2nc(N)cc(N)n2)c(C)n1-c1cccc(F)c1,"inconclusive: 13 µM [cytotoxic, partial curve]",
N#Cc1c(NC(=O)c2ccc(Cn3cc(Br)cn3)o2)sc2c1CCCCCC2,active: 2.59 µM,
CC(C)C/C=C1\CCc2c([nH]c3ccccc23)C1=O,inactive,
Cc1nnc(NC(=O)CSc2nc(C(C)C)nc3sc(C)c(C)c23)s1,"inconclusive: 2.31 µM [cytotoxic, partial curve, poor fit]",
O=[N+]([O-])/C=C/c1cn(Cc2ccccc2)c2ccccc12,"inconclusive: 20.6 µM [cytotoxic, single point]",
Cc1ccc(OCC(=O)Nc2ccc(N3CCN(C(=O)c4ccc(C)cc4)CC3)cc2)cc1,inactive,
Cc1ccccc1N(CC(=O)NC1CCCC1)C(=O)c1oc(C(C)(C)C)cc1C,active: 16.4 µM,
COc1ccc(-n2nc(C(=O)NCC(=O)N3CCC(C)CC3)c3ccccc3c2=O)c(OC)c1,"inconclusive: 1.84 µM [cytotoxic, full curve]",
CSc1nn(Cc2ccc(F)cc2)c(N(C(C)=O)C(C)=O)c1S(=O)(=O)c1ccccc1,inactive,

# An excerpt from above in order of SMILES length, smallest number first:
SMILES,Potency,"activity change, negative = cytotoxicity"
COc1ccc(/C=C/c2nc(C#N)c(N3CCCCC3)o2)cc1OC,inactive,
COc1ccc(C(=O)C2CCCN(Cc3c(F)ccc(F)c3F)C2)c(OC)c1 (centres undefined),,inconclusive: -33.8% [cytotoxic]
CSc1nn(Cc2ccc(F)cc2)c(N(C(C)=O)C(C)=O)c1S(=O)(=O)c1ccccc1,inactive,
COC(=O)C1=C(CS(=O)(=O)c2ccc(Cl)cc2)NC(=O)NC1c1ccc(O)c(OC)c1 (centres undefined),"inconclusive: 20.6 µM [rising, single point]",
Cc1ccc(C)c(N2CCN(C(=S)Nc3ccc4nc(N5CCN(C)CC5)cc(C)c4c3)CC2)c1,inactive,
